Test results as given in PubChem BioAssay AID504467 (National Center for Advancing Translational Sciences (NCATS), 2011).
Screen size: about 330,000 compounds; about 7,700 (2.3%) were called active. This list was built around the results that the source calls inconclusive (neither active nor inactive); the mix of calls is not that of the screen. Calls follow the shape of the dose curve; as a rule, active = well fitted inhibition curve with a large enough effect; inconclusive = small, poorly fitted or top-dose-only effect, or effect the other way; inactive = flat fitted curve, though single readings scatter. Potencies beside an inconclusive call are fits to weak or partial responses and may not hold up.

Test: qHTS screen for small molecules that inhibit ELG1-dependent DNA repair in human embryonic kidney (HEK293T) cells expressing luciferase-tagged ELG1; also: nearly all actives have a fitted effect of over 55% in size
Settings: HEK293T ELG1-luciferase reporter, luminescence, 16 h, DNA damage induced by 5-fluorouridine; series mostly up to 46.1 µM
In short: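 HEK293T cells expressing luciferase-tagged ELG1 (2,000/well) received 5-Fluorouridine plus compound or DMSO for 16 hr at 37 °C. Luciferase was read by ONE-Glo luminescence after 30 min at room temperature.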
Potency is read from the fitted curve at half-maximal effect.

SMILES	Potency
CCC(=O)Nc1cc(-c2cc3ccccc3oc2=O)ccc1OC	inconclusive: 4.61 µM [activator, partial curve]
Cc1ccc(-c2cn(-c3ccccc3)c(SCC(=O)NC3CCS(=O)(=O)C3)n2)cc1C (stereo not drawn)	inconclusive: 2.31 µM [activator, partial curve]
O=C(CCC1CCCC1)Nc1ccc(Br)cn1	inconclusive: 23.1 µM [activator, single point]
Cc1ccc(Cn2ccsc2=NC(=O)COC(=O)c2ccc(NC(=O)CC#N)cc2)cc1	inconclusive: 5.17 µM [inhibitor, partial curve, poor fit]
COc1cccc(-c2noc(-c3cccs3)n2)c1	inconclusive: 10.3 µM [activator, partial curve]
CCCCC(NC(=O)CCc1c(C)c2cc3c4c(oc3c(C)c2oc1=O)CCCC4)C(=O)O (stereo not drawn)	inactive
CSc1ccc(C(=O)C2CCCN(C(=O)c3cc(C)n(C)n3)C2)cc1 (stereo not drawn)	inconclusive: 29.1 µM [inhibitor, partial curve, poor fit]
O=C(O)CC/C(=C\c1ccc2c(c1)OCO2)c1nc2ccccc2s1	inconclusive: 20.6 µM [activator, single point]
Cc1ccc(CNc2ccc(N3CCOCC3)cc2)s1	inconclusive: 4.11 µM [activator, partial curve]
COc1ccc(NS(=O)(=O)c2ccc(N3CCCC3)c(NC(=S)Nc3cccc(C)c3C)c2)cc1	inconclusive: 32.6 µM [inhibitor, single point]
O=C(C(Cc1ccccc1)n1cccc1)N1CCc2ccccc21 (stereo not drawn)	inactive
CCOc1cccc(C(=O)N2CCCN(C)CC2)c1	inconclusive: 1.41 µM [activator, full curve, poor fit]
COc1ccc2nc(N=Nc3c(O)ccc4ccccc34)sc2c1	inactive
CN(c1ccc(OCC(=O)Nc2nc3ccccc3s2)cc1)S(=O)(=O)c1ccccc1	active: 8.2 µM
COc1ccccc1N1CCN(C(=S)NC(=O)/C=C/c2ccc(F)cc2)CC1	inconclusive: 18.3 µM [activator, single point]
COc1ccc(C2CC(c3ccccc3)=NN2C(=O)COC(=O)c2cccc(S(=O)(=O)N3CCOCC3)c2)cc1 (stereo not drawn)	inconclusive: 6.51 µM [inhibitor, full curve, poor fit]
O=C(OCc1cc(Cl)cc2c1OCOC2)c1cccnc1Cl	inconclusive: 16.4 µM [activator, partial curve]
CCCn1nc(C(=O)NCC2COc3ccccc3O2)c2ccccc2c1=O (stereo not drawn)	active: 20.6 µM
O=C1NC(=O)/C(=C\c2ccc(Oc3cnccn3)cc2)S1	inconclusive: 14.6 µM [activator, partial curve]
CC(OC(=O)c1cccc(-n2cnnn2)c1)C(=O)Nc1ccc(F)cc1 (stereo not drawn)	inconclusive: 10.3 µM [inhibitor, partial curve]
Cc1ccc(C(=O)c2cc3ccccc3o2)cc1C	inconclusive: 7.31 µM [activator, partial curve]
COc1ccc(C2=NS(=O)(=O)N(C)C(C(=O)NCc3cccs3)=C2)cc1OC	inconclusive: 20.6 µM [inhibitor, partial curve]

Structures shown so far that contain an aryl thioether with sulfur outside any ring:
SMILES	Potency
Cc1ccc(-c2cn(-c3ccccc3)c(SCC(=O)NC3CCS(=O)(=O)C3)n2)cc1C (stereo not drawn)	inconclusive: 2.31 µM [activator, partial curve]
CSc1ccc(C(=O)C2CCCN(C(=O)c3cc(C)n(C)n3)C2)cc1 (stereo not drawn)	inconclusive: 29.1 µM [inhibitor, partial curve, poor fit]

Later entries.

SMILES	Potency
O=C(C[C@H]1C/C=C\CC[C@H](Cc2ccc(F)cc2)C(=O)OC[C@H]2CCCN2C1=O)N[C@H](CO)Cc1ccccc1	active: 23.1 µM
O=C(Nc1cccc(S(=O)(=O)N2CCOCC2)c1)c1cnn2c(C(F)F)cc(-c3ccccc3)nc12	inconclusive: 5.8 µM [inhibitor, single point]
Cc1cc(-c2ccccc2)nc(-c2ccccc2)c1C	inconclusive: 18.3 µM [activator, partial curve]
Cc1cccc(N2CCN(C(=O)CCC(=O)N3CC(C)Oc4ccc(C)cc43)CC2C)c1 (stereo not drawn)	inactive
CCN1C(=O)c2cccc3c(S(=O)(=O)Nc4ccccc4)ccc1c23	inconclusive: 9.2 µM [activator, single point]
CCOc1ccc(C2=CC(=O)C[C@H](c3ccc(OC)cc3)C2)cc1	inconclusive: 14.6 µM [activator, partial curve]
Cc1nc(N2CCN(C)CC2)c2c(C)c(C(=O)Nc3ccc(C)c(F)c3)sc2n1	inactive
Cc1ccc(C2CCN(C(=S)Nc3cccc(C)c3)C2)cc1 (stereo not drawn)	inactive
COc1cccc(N(C(=O)c2ccco2)C(C(=O)NC2CCCC2)c2ccc(N(C)C)cc2)c1 (stereo not drawn)	inactive
CCOC(=O)COn1c(=O)c(-c2ccc(F)cc2)[n+]([O-])c2ccccc21	inconclusive: 18.3 µM [activator, single point]
O=P(O)(CCc1ccncc1)CN1CCCCC1	inactive
CCc1ccc(Nc2n[n+](-c3ccccc3)c(-c3ccc(N(CC)CC)cc3)s2)cc1	inactive
Cc1ccc(OCc2cc(C(=O)N3CCC(C(O)C(C)C)CC3)no2)cc1C (stereo not drawn)	inconclusive: 13 µM [activator, partial curve, poor fit]
Cc1[nH]c2ccccc2c(=O)c1CN(C)Cc1ccccc1	inconclusive: 23.1 µM [activator, partial curve]
Cc1cccc(/C=N/NC(=O)c2ccc(NC(=O)c3ccc(Cl)cc3)cc2)n1	inactive
Clc1ccc(CN2CCN(/N=C/c3cccnc3)CC2)cc1	inconclusive: 18.3 µM [inhibitor, single point]
C/C=C(/C)C(=O)Nc1cccc(C2=NOC3(C2)C[C@H](C(N)=O)N(C(=O)COc2ccc(Cl)cc2)C3)c1 (stereo partly drawn)	inconclusive: 29.1 µM [inhibitor, single point]
O=C1Nc2ccccc2N(O)N1c1cc(-c2ccccc2Cl)no1	inconclusive: 14.6 µM [activator, partial curve]
COC(=O)c1ccc(N2CCOCC2)c(F)c1	inconclusive: 20.6 µM [activator, single point]
CN(C)c1ccc(NC(=S)NC23CC4CC(CC(C4)C2)C3)cc1	inconclusive: 20.6 µM [activator, partial curve]
C=CCC[C@@H](Cc1ccc(F)cc1)C(=O)OC[C@@H](Cc1c[nH]c2ccccc12)NC(=O)[C@H](CC=C)CC(=O)NCCO	inactive
